{"source": "PubChem BioAssay AID720505 | Drosophila RNAi Screening Center – 2013", "test": "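Genes needed for store-operated calcium entry in fly cells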 (primary screen)", "cell system": "Drosophila S2R+ cells", "reagents": "long dsRNA against Drosophila genes", "conditions": "thapsigargin (2 µM) in calcium-free buffer to empty internal stores, then 2 mM calcium added back", "measured": "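Fluo-4 signal in 384-well plates read on a FLIPR after thapsigargin (2 µM, calcium-free) store depletion and 2 mM calcium add-back; unnormalised mean endpoint per well; screen run twice, selected wells retested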", "direction": "calcium signal and retest calcium signal: higher = more calcium entry after store depletion", "call rule": "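About 1500 genes called as lowering calcium entry, by varying amounts, judged against per-plate control wells with STIM1 as positive and Rho1 as negative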", "calls": "active = called as lowering calcium entry; inactive = not called", "note": "The screen tested about 20,000 reagents; shown is an unselected part of those with a known target gene and a result. Over the whole deposit, about 2,100 (10%) were called active. 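Raw plate signals without normalisation; calls rest on control-based scores that were not deposited; replicate 2 separates called from uncalled poorly.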 A plus sign joins genes that one reagent is predicted to hit. The record does not give: the amount of reagent, the time to read-out."}
{"gene": "GV1 (GeneID 38238)", "dsRNA": "DRSC08228", "calcium signal, replicate 1": 107, "calcium signal, replicate 2": 130, "Call": "inactive"}
{"gene": "RyR (GeneID 49090)", "dsRNA": "DRSC07543", "calcium signal, replicate 1": 73.8, "calcium signal, replicate 2": 83.2, "Call": "inactive"}
{"gene": "alphaCOP (GeneID 38199)", "dsRNA": "DRSC08706", "calcium signal, replicate 1": 71.8, "calcium signal, replicate 2": 112, "Call": "active"}
{"gene": "CG42514 (GeneID 8674108)", "dsRNA": "DRSC10428", "calcium signal, replicate 1": 101, "calcium signal, replicate 2": 99.2, "Call": "inactive"}
{"gene": "Rcd1 (GeneID 36560)", "dsRNA": "DRSC07116", "calcium signal, replicate 1": 151, "calcium signal, replicate 2": 164, "Call": "inactive"}
{"gene": "Ccp84Ae (GeneID 40821)", "dsRNA": "DRSC12590", "calcium signal, replicate 1": 77.5, "calcium signal, replicate 2": 185, "retest calcium signal, replicate 1": 7083, "retest calcium signal, replicate 2": 120, "Call": "active"}
{"gene": "THADA (GeneID 33001)", "dsRNA": "DRSC19675", "calcium signal, replicate 1": 134, "calcium signal, replicate 2": 151, "Call": "inactive"}
{"gene": "CG43277 (GeneID 12798350)", "dsRNA": "DRSC05800", "calcium signal, replicate 1": 80.7, "calcium signal, replicate 2": 92.1, "Call": "inactive"}
{"gene": "CG31835 + CG42585", "dsRNA": "DRSC01412", "calcium signal, replicate 1": 126, "calcium signal, replicate 2": 111, "Call": "inactive"}
{"gene": "CG32452 (GeneID 318035)", "dsRNA": "DRSC22250", "calcium signal, replicate 1": 88.4, "calcium signal, replicate 2": 136, "Call": "inactive"}
{"gene": "l(3)05822 (GeneID 47260)", "dsRNA": "DRSC16202", "calcium signal, replicate 1": 202, "calcium signal, replicate 2": 316, "Call": "inactive"}
{"gene": "Fer3HCH (GeneID 32260)", "dsRNA": "DRSC19892", "calcium signal, replicate 1": 125, "calcium signal, replicate 2": 104, "Call": "inactive"}
{"gene": "cnk (GeneID 36952)", "dsRNA": "DRSC07595", "calcium signal, replicate 1": 196, "calcium signal, replicate 2": 170, "Call": "inactive"}
{"gene": "Mdh1 (GeneID 34414)", "dsRNA": "DRSC02846", "calcium signal, replicate 1": 164, "calcium signal, replicate 2": 167, "Call": "inactive"}
{"gene": "Ndf (GeneID 192507)", "dsRNA": "DRSC02775", "calcium signal, replicate 1": 111, "calcium signal, replicate 2": 95.8, "Call": "inactive"}
{"gene": "CG42855 (GeneID 10178866)", "dsRNA": "DRSC06161", "calcium signal, replicate 1": 131, "calcium signal, replicate 2": 128, "Call": "inactive"}
{"gene": "mthl7 (GeneID 38910)", "dsRNA": "DRSC10852", "calcium signal, replicate 1": 98.2, "calcium signal, replicate 2": 86.9, "Call": "inactive"}
{"gene": "Su(H) (GeneID 34881)", "dsRNA": "DRSC03445", "calcium signal, replicate 1": 116, "calcium signal, replicate 2": 136, "Call": "inactive"}
{"gene": "Cpr30F (GeneID 318997)", "dsRNA": "DRSC02908", "calcium signal, replicate 1": 91.2, "calcium signal, replicate 2": 117, "Call": "inactive"}
{"gene": "CG3735 (GeneID 37803)", "dsRNA": "DRSC04411", "calcium signal, replicate 1": 132, "calcium signal, replicate 2": 91.2, "Call": "inactive"}
{"gene": "blanks (GeneID 38620)", "dsRNA": "DRSC09757", "calcium signal, replicate 1": 89.4, "calcium signal, replicate 2": 50.9, "Call": "inactive"}
{"gene": "FucT6 (GeneID 32122)", "dsRNA": "DRSC19848", "calcium signal, replicate 1": 106, "calcium signal, replicate 2": 122, "Call": "inactive"}
{"gene": "CG7430 (GeneID 39988)", "dsRNA": "DRSC10845", "calcium signal, replicate 1": 129, "calcium signal, replicate 2": 113, "Call": "inactive"}
{"gene": "puml (GeneID 35733)", "dsRNA": "DRSC06793", "calcium signal, replicate 1": 73.3, "calcium signal, replicate 2": 98.3, "Call": "inactive"}
{"gene": "MFS15 (GeneID 37168)", "dsRNA": "DRSC06523", "calcium signal, replicate 1": 97.7, "calcium signal, replicate 2": 83.6, "Call": "inactive"}
{"gene": "Nep1 (GeneID 31547)", "dsRNA": "DRSC18388", "calcium signal, replicate 1": 155, "calcium signal, replicate 2": 138, "Call": "inactive"}
{"gene": "Nep1 (GeneID 31547)", "dsRNA": "DRSC18389", "calcium signal, replicate 1": 226, "calcium signal, replicate 2": 99.1, "Call": "inactive"}
{"gene": "CG18810 (GeneID 59171)", "dsRNA": "DRSC02701", "calcium signal, replicate 1": 176, "calcium signal, replicate 2": 106, "Call": "inactive"}

Called active (from the list above):
{"gene": "alphaCOP (GeneID 38199)", "dsRNA": "DRSC08706", "calcium signal, replicate 1": 71.8, "calcium signal, replicate 2": 112, "Call": "active"}
{"gene": "Ccp84Ae (GeneID 40821)", "dsRNA": "DRSC12590", "calcium signal, replicate 1": 77.5, "calcium signal, replicate 2": 185, "retest calcium signal, replicate 1": 7083, "retest calcium signal, replicate 2": 120, "Call": "active"}
